{"source": "PubChem BioAssay AID1259254 (NCATS, 2017)", "aim": "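Gene knock-downs that lead to re-replication, shown by excess G2 DNA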 (primary screen)", "system": "human HCT116 colorectal cancer cells", "reagents": "single siRNA against human genes", "time to read-out": "3 days", "read-out": "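Imaged Hoechst DNA stain sorts each cell into a cycle phase by DNA amount; per plate, G2 fraction set to 0% for non-targeting and 100% for GMNN siRNA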", "direction": "G2 robust z-score and G2 cells, % of GMNN control: higher = more G2 cells, more excess DNA replication", "active means": "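Active siRNAs have a G2 robust z of 5 or more median absolute deviations over the median, which in these data means about 38% or higher of GMNN control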", "note": "The deposit covers about 59,000 reagents; below is a part drawn at random. About 1,550 of all reagents (2.6%) count as active. 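G2 share is only a proxy for re-replication; each gene was hit by three separate siRNAs, and active genes were retested.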 Reagents against one gene are numbered here. Not all columns of the deposit are shown. Not stated in the record: the amount of reagent."}
{"gene symbol": "CIART", "reagent": 1, "G2 robust z-score": 0.312, "G2 cells, % of GMNN control": 5.16, "call": "inactive"}
{"gene symbol": "CIART", "reagent": 2, "G2 robust z-score": -0.364, "G2 cells, % of GMNN control": 0.405, "call": "inactive"}
{"gene symbol": "CIART", "reagent": 3, "G2 robust z-score": -0.328, "G2 cells, % of GMNN control": 0.658, "call": "inactive"}
{"gene symbol": "ZSCAN31", "reagent": 1, "G2 robust z-score": -1.77, "G2 cells, % of GMNN control": -9.49, "call": "inactive"}
{"gene symbol": "ZSCAN31", "reagent": 2, "G2 robust z-score": -0.419, "G2 cells, % of GMNN control": 0.0184, "call": "inactive"}
{"gene symbol": "ZSCAN31", "reagent": 3, "G2 robust z-score": 1.1, "G2 cells, % of GMNN control": 10.7, "call": "inactive"}
{"gene symbol": "TAC1", "reagent": 1, "G2 robust z-score": 0.949, "G2 cells, % of GMNN control": 9.65, "call": "inactive"}
{"gene symbol": "TAC1", "reagent": 2, "G2 robust z-score": -0.257, "G2 cells, % of GMNN control": 1.16, "call": "inactive"}
{"gene symbol": "TAC1", "reagent": 3, "G2 robust z-score": 0.365, "G2 cells, % of GMNN control": 5.54, "call": "inactive"}
{"gene symbol": "EMP2P1", "reagent": 1, "G2 robust z-score": -0.0273, "G2 cells, % of GMNN control": 2.78, "call": "inactive"}
{"gene symbol": "EMP2P1", "reagent": 2, "G2 robust z-score": 0.171, "G2 cells, % of GMNN control": 4.17, "call": "inactive"}
{"gene symbol": "EMP2P1", "reagent": 3, "G2 robust z-score": -0.491, "G2 cells, % of GMNN control": -0.484, "call": "inactive"}
{"gene symbol": "TMED1", "reagent": 1, "G2 robust z-score": -0.543, "G2 cells, % of GMNN control": -0.85, "call": "inactive"}
{"gene symbol": "TMED1", "reagent": 2, "G2 robust z-score": -0.997, "G2 cells, % of GMNN control": -4.05, "call": "inactive"}
{"gene symbol": "TMED1", "reagent": 3, "G2 robust z-score": -0.504, "G2 cells, % of GMNN control": -0.578, "call": "inactive"}
{"gene symbol": "PPM1J", "reagent": 1, "G2 robust z-score": -1.19, "G2 cells, % of GMNN control": -5.44, "call": "inactive"}
{"gene symbol": "PPM1J", "reagent": 2, "G2 robust z-score": -0.88, "G2 cells, % of GMNN control": -3.22, "call": "inactive"}
{"gene symbol": "PPM1J", "reagent": 3, "G2 robust z-score": 0.55, "G2 cells, % of GMNN control": 6.84, "call": "inactive"}
{"gene symbol": "NUDT6", "reagent": 1, "G2 robust z-score": -0.924, "G2 cells, % of GMNN control": -3.53, "call": "inactive"}
{"gene symbol": "NUDT6", "reagent": 2, "G2 robust z-score": 1.11, "G2 cells, % of GMNN control": 10.8, "call": "inactive"}
{"gene symbol": "NUDT6", "reagent": 3, "G2 robust z-score": -0.125, "G2 cells, % of GMNN control": 2.09, "call": "inactive"}
{"gene symbol": "AMOTL1", "reagent": 1, "G2 robust z-score": -0.473, "G2 cells, % of GMNN control": -0.364, "call": "inactive"}
{"gene symbol": "AMOTL1", "reagent": 2, "G2 robust z-score": -0.0628, "G2 cells, % of GMNN control": 2.53, "call": "inactive"}
{"gene symbol": "AMOTL1", "reagent": 3, "G2 robust z-score": -0.487, "G2 cells, % of GMNN control": -0.462, "call": "inactive"}

Limited to “G2 cells, % of GMNN control”, for 2 of the entries above:
PPM1J #1 = -5.44
PPM1J #2 = -3.22
